Taken from: PubChem BioAssay AID1159578 (Peter MacCallum Cancer Centre, 2015)
Shown is an unselected part of about 18,000 deposited reagents. About 1,030 of all reagents (5.7%) count as active. 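Inactive calls also include pools with fewer than 3300 nuclei, whose migration was not assessed.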 Raw values are not corrected between plates. Further read-outs or replicates are left out here.

Assay: 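Genome-wide hunt for genes controlling movement of lymphatic endothelial cells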 (primary screen)
System: human lymphatic endothelial cells
Reagent: siRNA pool against human genes, 40 nM
Time to read-out: 48 h after transfection
Read-out: 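High-content imaging of dye-stained cells in a scratch assay measures filled wound area and nuclei per well; duplicate means given as ratio to mock and robust z-score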
Direction: migration robust z-score: higher = faster migration into the scratch; nuclei per well: higher = more cells in the well
Active means: 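Migration changed when robust z exceeds 2 or falls below -2 and mean nuclei number is at least 3300; otherwise not called changed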
Calls: active = migration changed; inactive = no migration change, or too few cells

no.	gene	PubChem SID	migration robust z-score	nuclei per well, duplicate mean	outcome
1	ZNF556	SID255360637	0.67	6320	inactive
2	ADAMTS20	SID255360645	0.36	5740	inactive
3	SLC66A1	SID255358251	-0.2	5622	inactive
4	SLC30A10	SID255358675	-0.05	5226	inactive
5	EPS8	SID255349538	0.83	5842	inactive
6	RPL21	SID255352178	-1.42	4363	inactive
7	ODAM	SID255358304	-1.27	6701	inactive
8	LGSN	SID255357784	-0.46	6352	inactive
9	RAI14	SID255356650	-1.15	4456	inactive
10	OR11H12	SID255365897	-1.15	5792	inactive
11	TENM3	SID255358798	0.24	5974	inactive
12	ETFRF1	SID255363220	1.63	7198	inactive
13	PGK1	SID255351541	0.13	5070	inactive
14	HEY2	SID255356276	-0.16	6100	inactive
15	HEMGN	SID255358633	-2.09	3756	active
16	FOXM1	SID255349710	0	5736	inactive
17	MCOLN1	SID255359334	-0.57	5060	inactive
18	SUSD2	SID255359051	1.8	6310	inactive
19	PNPT1	SID255361725	-0.1	5646	inactive
20	NUMB	SID255353709	-0.42	4205	inactive
21	IL20RA	SID255357940	1.12	4982	inactive
22	GPAT2	SID255363470	1.16	4682	inactive
23	MIER3	SID255363850	-0.2	6038	inactive
24	VPS4A	SID255356967	-1.17	5520	inactive
25	MRPS14	SID255359780	-1.96	5724	inactive
26	SSX7	SID255364615	1.64	7056	inactive
27	PTPRG	SID255351961	-0.16	5832	inactive
28	IFNL3	SID255364619	-0.68	5928	inactive
29	FUT8	SID255349772	0.4	6918	inactive
30	HTN3	SID255350352	-0.88	4535	inactive
31	PSMC2	SID255351895	-0.94	6204	inactive
32	GOT1L1	SID255363022	-0.94	5335	inactive
33	CLEC4E	SID255356735	-1.52	6626	inactive
34	IBA57	SID255364031	-0.36	4880	inactive
35	NEDD9	SID255351196	-2.94	3010	inactive
36	NUBPL	SID255360715	0.36	5294	inactive
37	FNDC9	SID255365855	-1.83	3920	inactive
38	INVS	SID255356937	-1.6	5732	inactive
39	ZC2HC1C	SID255360396	0.34	5966	inactive

2 entries from above, reduced to “nuclei per well, duplicate mean”.
EPS8 [SID255349538]	5842
RPL21 [SID255352178]	4363
